In publication doi:10.1101/2025.09.29.679137:

T1: NEPN (bait of the immunoprecipitations from tumor lysates and from the liver metastasis site) (mouse) (UniProt Q9CQ76)
T1 sequence: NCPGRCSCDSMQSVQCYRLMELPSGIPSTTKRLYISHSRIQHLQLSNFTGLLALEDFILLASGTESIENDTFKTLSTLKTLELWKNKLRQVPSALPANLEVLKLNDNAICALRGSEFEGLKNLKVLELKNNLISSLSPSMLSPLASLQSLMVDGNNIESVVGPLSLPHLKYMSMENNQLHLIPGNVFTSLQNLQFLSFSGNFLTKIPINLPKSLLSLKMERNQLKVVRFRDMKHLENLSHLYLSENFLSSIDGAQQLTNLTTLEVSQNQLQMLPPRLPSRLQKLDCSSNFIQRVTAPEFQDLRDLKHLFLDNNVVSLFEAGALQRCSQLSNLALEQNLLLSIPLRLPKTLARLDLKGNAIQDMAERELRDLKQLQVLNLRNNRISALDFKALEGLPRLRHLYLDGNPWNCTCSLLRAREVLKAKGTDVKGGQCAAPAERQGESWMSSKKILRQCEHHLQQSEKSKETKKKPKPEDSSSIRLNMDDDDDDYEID

B1: Arg1 (enzyme, UniProt Q61176 1-323)
chain: MSSKPKSLEIIGAPFSKGQPRGGVEKGPAALRKAGLLEKLKETEYDVRDHGDLAFVDVPNDSSFQIVKNPRSVGKANEELAGVVAEVQKNGRVSVVLGGDHSLAVGSISGHARVHPDLCVIWVDAHTDINTPLTTSSGNLHGQPVSFLLKELKGKFPDVPGFSWVTPCISAKDIVYIGLRDVDPGEHYIIKTLGIKYFSMTEVDKLGIGKVMEETFSYLLGRKKRPIHLSFDVDGLDPAFTPATGTPVLGGLSYREGLYITEEIYKTGLLSGLDIMEVNPTLGKTAEEVKSTVNTAVALTLACFGTQREGNHKPGTDYLKPPK
B2: Tsr1 (protein, UniProt Q5SWD9 1-803)
chain: MAAHRSGPLKQQNKAHKGGRHHGGGSAQRDSKGRVGPKILCKKLKRQLSRIDQRHRASQLRKQKRESVLAEKRQLGSKDGPPHQVLVVPLHSRISLPEAFKLLQNEDLGTVYLSERGSTQSFMLLCPSLKHRWFFTYARPGDLHTLLDMAKVADTILFLLDPLEGWDSTGDYCLSCLFAQGLPTYTLAVQGLSGFPPKKQIDARKKLSKMVEKRFPEDKLLLLDTQQESGMLLRQLANQKQRHLAFRDRRAYLFAHVADFVPSEESDLVGTLKISGYVRGRTLNVNSLLHIVGHGDFQMNQIDAPVDPFPLNPRVIKSQKKPNMAMEVCVTDAAPDMEEDLKVLMKADPDHQESLQTEAIPDPMEGEQTWPTEEELDEADDLLKQRSRVVKKVPKGTSSYQAEWILDEGDESDGEGGEYDDIQHEGFMEEESQDGSGEEEEEECETMTLGESVRDDLYDEKVDAEDEERMLEKYKQERLEEMFPDEMDTPRDVAARIRFQKYRGLKSFRTSPWDPKENLPRDYARIFQFQNFVNTRKRIFKEIEEKEAEGAEVGWYVTLHVSDVPVSVVEYFRQGAPLIAFSLLPYEQKMSVLNMVVSRNPGNTEPVKAKEELIFHCGFRRFRASPLFSQHTAADKHKFQRFLTADAAFVVTVFAPITFPPASVLLFKQRRNGMHSLIATGHLFSVDPDRMVIKRVVLSGHPFKIFTKMAVVRYMFFNREDVMWFKPVELRTKWGRRGHIKEPLGTHGHMKCSFDGKLKSQDTVLMNLYKRVFPKWTYDPYVPEPVPWVKSDISSTVSEVDME
B3: Aldh5a1 (protein, UniProt Q8BWF0 36-523)
chain: ASGPGGLHADLLRGDSFVGGRWLPAPATFPVYDPASGAKLGTVADCGVPEARAAVRAAYDAFNSWKGVSVKERSLLLRKWYDLMIQNKDDLAKIITAESGKPLKEAQGEILYSALFLEWFSEEARRIYGDIIYTSAKDKRGLVLKQPVGVAAIITPWNFPSAMITRKVGAALAAGCTVVVKPAEDTPYSALALAQLANQAGIPAGVYNVIPCSRNKAKEVGEVLCTDPLVSKISFTGSTATGKILLHHAANSVKRVSMELGGLAPFIVFDSANVDQAVAGAMASKFRNAGQTCVCSNRFLVQRGIHDSFVTKFAEAMKKSLRVGNGFEEGTTQGPLINEKAVEKVEKQVNDAVAKGATVVTGGKRHQSGGNFFEPTLLSNVTRDMLCITEETFGPLAPVIKFDKEEEAVAIANAAEVGLAGYFYSQDPAQIWRVAEQLEVGMVGVNEGLISSVECPFGGVKQSGLGREGSKYGIDEYLEVKYVCYGGL
B4: Serping1 (protein, UniProt P97290 23-504)
chain: DPEATSHSTQDPLEAQAKSRESFPERDDSWSPPEPTVLPSTWPTTSVAITITNDTMGKVANESFSQHSQPAAQLPTDSPGQPPLNSSSQPSTASDLPTQATTEPFCPEPLAQCSDSDRDSSEAKLSEALTDFSVKLYHAFSATKMAKTNMAFSPFSIASLLTQVLLGAGDSTKSNLESILSYPKDFACVHQALKGFSSKGVTSVSQIFHSPDLAIRDTYVNASQSLYGSSPRVLGPDSAANLELINTWVAENTNHKIRKLLDSLPSDTCLVLLNAVYLSAKWKITFEPKKMMAPFFYKNSMIKVPMMSSVKYPVAQFDDHTLKAKVGQLQLSHNLSFVIVVPVFPKHQLKDVEKALNPTVFKAIMKKLELSKFLPTYLTMPHIKVKSSQDMLSVMEKLEFFDFTYDLNLCGLTEDPDLQVSAMKHETVLELTESGVEAAAASAISFGRSLPIFEVQRPFLFLLWDQQHRFPVFMGRVYDPRG
B5: Rasa3 (protein, UniProt Q60790 1-834)
chain: MAVEEEGLRVFQSVRIKIGEAKNLPSYPGPNKMRDCYCTVNLDQEEVFRTKIVEKSLCPFYGEDFYCEIPRSFRHLSFYIFDRDVFRRDSIIGKVAIQKEDLQRYHNRDTWFQLQHVDADSEVQGKVHLELRLSEVITDTGVVCHKLAARIFECQGLPIVNGQCDPYATVTLAGPFRSEAKKTKVKKKTNNPQFDEVFYFEVTRPCSYSKKSHFDFEEEDVDKLEIRVDLWNASNLKFGDEFLGELRLPLKILRHSSSYEAWYFLQPRDNGNKSLKPDDLGSLRLNVVYTEDHVFSSEYYSPLRDLLLKSADVEPVSASAAHILGEVCRDKQEAAIPLVRLLLHYGRVVPFISAIASAEVKRTQDPNTIFRGNSLTSKCIDETMKLAGMHYLHVTLKPTIEEICQSHKSCEIDPVKLKDGENLENNMESLRQYVDRIFTVITKSGVSCPTVMCDIFFSLREAAAKRFQDDLDVRYTAVSSFIFLRFFAPAILSPNLFQLTPHHTDPQTSRTLTLISKTIQTLGSLSKSKSASFKESYMATFYEFFNEQKYADAVKNFLDLISSSGRRDPKSIEQPILLKEGFMIKRAQGRKRFGMKNFKKRWFRLTNHEFTYQKSKGDQPLCNIPIENILAVERLEEESFRMKNMFQVIQPERALYIQANNCVEAKDWIDILTKVSQCNQKRLTVFHPSAYLNGHWLCCRASSDTAAGCTPCTGGLPANIQLDIDGDRETERIYSLFNLYMGKLEKMQEACGSKSVYDGPEQEEYSTFVIDDPQETYKTLKQVIAGVGTLEQEHAQYRRDKFKKTRYGSQEHPIGDKSFQNYIRQQSEISTHSI

target: T1, NEPN (bait of the immunoprecipitations from tumor lysates and from the liver metastasis site) (mouse); test: affinity purification with mass spectrometry

Row | binding | Molecule
1 | binds | Gpx4
2 | binds | B1
3 | binds | B2
4 | binds | B3
5 | binds | B4
6 | binds | B5

Results are given in words; binding and its absence hold for the method and conditions named. In cells and extracts the contact can be indirect. A yes stands for co-enrichment or nearness to the bait. Other partners may have been found.
